From patent publication US10138233B2, “Imidazole compounds as modulators of FSHR and uses thereof” (Merck Patent GmbH, priority 2013, dated 2018) come the findings set out here.

Protein sequences, listed by entry. Tags and fused reporters are not part of them. Residues count along the entry.
UniProt P23945, 18-695 limits assumed: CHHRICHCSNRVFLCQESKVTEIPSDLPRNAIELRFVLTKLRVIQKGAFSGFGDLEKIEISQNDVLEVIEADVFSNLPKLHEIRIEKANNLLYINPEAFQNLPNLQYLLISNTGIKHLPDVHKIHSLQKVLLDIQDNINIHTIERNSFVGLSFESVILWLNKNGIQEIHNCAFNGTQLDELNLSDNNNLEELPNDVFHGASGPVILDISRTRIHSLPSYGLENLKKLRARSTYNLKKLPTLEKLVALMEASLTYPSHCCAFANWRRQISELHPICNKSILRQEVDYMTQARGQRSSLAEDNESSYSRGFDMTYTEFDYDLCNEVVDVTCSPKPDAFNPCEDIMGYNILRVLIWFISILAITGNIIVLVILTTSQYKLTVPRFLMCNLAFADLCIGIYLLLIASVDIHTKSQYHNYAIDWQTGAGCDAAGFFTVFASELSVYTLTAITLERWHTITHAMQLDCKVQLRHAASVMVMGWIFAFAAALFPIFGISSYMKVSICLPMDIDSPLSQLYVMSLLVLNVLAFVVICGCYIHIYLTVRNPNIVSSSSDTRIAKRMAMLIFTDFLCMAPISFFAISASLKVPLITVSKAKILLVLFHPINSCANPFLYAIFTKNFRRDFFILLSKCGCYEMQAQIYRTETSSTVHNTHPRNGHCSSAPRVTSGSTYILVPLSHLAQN
UniProt P20395, 18-692 limits assumed: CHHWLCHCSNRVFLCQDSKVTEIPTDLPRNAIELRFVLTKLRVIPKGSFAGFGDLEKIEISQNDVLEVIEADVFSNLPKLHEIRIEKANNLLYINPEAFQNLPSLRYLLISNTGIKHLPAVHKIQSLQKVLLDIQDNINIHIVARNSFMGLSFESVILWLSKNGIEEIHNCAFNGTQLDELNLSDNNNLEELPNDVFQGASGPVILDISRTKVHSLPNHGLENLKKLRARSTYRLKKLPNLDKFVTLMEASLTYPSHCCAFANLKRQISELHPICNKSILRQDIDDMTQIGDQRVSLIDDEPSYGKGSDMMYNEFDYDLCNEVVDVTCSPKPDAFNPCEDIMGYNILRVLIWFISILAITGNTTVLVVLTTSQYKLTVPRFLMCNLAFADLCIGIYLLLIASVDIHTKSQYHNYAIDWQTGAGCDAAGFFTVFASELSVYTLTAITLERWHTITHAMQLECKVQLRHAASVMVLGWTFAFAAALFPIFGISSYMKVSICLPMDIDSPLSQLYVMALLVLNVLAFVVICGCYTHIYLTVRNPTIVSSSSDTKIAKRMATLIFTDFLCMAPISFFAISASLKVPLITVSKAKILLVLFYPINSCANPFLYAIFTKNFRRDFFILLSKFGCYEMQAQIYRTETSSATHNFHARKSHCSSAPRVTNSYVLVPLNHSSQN

As usually defined, the pEC50 is −log10 of the EC50, conventionally taken in molar units.

One assay addresses FSHR (Homo sapiens, UniProt P23945). Description: EC50 of cyclic AMP production in CHO FSHR cells + EC20 FSH (Assay A). Particulars: read-out: Assay A: EC50 of cyclic AMP production in CHO FSHR cells+EC20 FSH; CHO-FSHR-LUC cells, in presence of EC20 FSH, cAMP HTRF, 1 h 37° C. Background: In TR-FRET formats the signal depends on donor and acceptor labels being close together.
Assay [1] deals with follicle-stimulating hormone (FSH) receptor (Rattus norvegicus, UniProt P20395). Description: Rat Granulosa EC50 FSH (Assay B). Conditions: read-out: Assay B: Rat Granulosa EC50 FSH; rat granulosa cells, per Yanofsky et al. 2006.

pEC50: −log10 of the molar value. The match of structure and compound is tentative. Where only a bound is given, the exact number is not on record here.

For the molecule `COc1cc2c(cc1OC(C)C)-n1c(-c3cccs3)nc(C(=O)N(C)C(C)(C)C)c1CO2`, the pEC50 at FSHR was more than 7.00; in assay [1], 5.30 to 6.00.
